This note sets out measurements from the supplement of paper PMC12819154, “High-throughput peptide-centric local stability assay extends protein–ligand identification to membrane proteins, tissues and bacteria” (Nature Structural & Molecular Biology, 2025).

By UniProt entry, the sequences of proteins in these tests, tags left out. Where a name states a change or a piece, a line headed by the entry shows the natural chain unless it says otherwise.
UniProt Q03160, whole entry: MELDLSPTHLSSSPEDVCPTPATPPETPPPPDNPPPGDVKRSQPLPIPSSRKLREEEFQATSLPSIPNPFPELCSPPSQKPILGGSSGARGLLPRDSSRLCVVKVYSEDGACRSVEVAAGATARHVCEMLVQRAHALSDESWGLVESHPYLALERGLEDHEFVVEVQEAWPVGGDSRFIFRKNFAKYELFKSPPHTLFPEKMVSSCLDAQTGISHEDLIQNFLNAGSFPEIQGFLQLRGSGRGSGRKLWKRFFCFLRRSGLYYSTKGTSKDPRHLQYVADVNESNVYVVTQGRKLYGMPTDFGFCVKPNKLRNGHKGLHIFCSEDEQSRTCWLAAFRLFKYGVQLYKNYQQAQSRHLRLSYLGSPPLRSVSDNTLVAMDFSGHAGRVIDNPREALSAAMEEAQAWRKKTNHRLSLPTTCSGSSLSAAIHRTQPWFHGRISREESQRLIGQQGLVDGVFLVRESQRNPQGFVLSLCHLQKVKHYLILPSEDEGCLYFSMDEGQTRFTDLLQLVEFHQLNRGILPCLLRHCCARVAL
UniProt Q0VEJ0: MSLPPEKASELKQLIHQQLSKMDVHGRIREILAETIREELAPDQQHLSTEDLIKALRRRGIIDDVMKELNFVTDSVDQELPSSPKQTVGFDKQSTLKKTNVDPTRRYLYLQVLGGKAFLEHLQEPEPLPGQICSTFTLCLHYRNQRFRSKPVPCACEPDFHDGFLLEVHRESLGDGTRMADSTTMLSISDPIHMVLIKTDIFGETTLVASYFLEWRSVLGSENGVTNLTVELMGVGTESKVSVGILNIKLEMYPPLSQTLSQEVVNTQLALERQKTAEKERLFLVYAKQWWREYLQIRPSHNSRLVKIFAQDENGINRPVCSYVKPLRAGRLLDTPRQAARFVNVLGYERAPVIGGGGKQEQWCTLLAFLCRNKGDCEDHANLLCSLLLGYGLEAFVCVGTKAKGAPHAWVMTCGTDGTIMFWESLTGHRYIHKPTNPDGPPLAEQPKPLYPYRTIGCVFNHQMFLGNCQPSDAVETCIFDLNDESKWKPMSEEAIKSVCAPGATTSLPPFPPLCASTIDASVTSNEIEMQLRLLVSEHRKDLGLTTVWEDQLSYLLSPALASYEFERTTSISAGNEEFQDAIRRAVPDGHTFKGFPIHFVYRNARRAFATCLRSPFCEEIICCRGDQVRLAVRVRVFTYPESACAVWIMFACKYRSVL
UniProt Q04742: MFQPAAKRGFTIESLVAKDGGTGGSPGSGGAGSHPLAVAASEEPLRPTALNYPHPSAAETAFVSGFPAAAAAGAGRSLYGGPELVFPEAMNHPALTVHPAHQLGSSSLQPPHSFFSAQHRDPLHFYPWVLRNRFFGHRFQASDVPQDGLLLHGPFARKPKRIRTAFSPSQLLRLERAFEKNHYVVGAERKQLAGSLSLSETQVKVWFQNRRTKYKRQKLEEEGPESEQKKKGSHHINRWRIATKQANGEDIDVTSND
UniProt Q3U1Y4: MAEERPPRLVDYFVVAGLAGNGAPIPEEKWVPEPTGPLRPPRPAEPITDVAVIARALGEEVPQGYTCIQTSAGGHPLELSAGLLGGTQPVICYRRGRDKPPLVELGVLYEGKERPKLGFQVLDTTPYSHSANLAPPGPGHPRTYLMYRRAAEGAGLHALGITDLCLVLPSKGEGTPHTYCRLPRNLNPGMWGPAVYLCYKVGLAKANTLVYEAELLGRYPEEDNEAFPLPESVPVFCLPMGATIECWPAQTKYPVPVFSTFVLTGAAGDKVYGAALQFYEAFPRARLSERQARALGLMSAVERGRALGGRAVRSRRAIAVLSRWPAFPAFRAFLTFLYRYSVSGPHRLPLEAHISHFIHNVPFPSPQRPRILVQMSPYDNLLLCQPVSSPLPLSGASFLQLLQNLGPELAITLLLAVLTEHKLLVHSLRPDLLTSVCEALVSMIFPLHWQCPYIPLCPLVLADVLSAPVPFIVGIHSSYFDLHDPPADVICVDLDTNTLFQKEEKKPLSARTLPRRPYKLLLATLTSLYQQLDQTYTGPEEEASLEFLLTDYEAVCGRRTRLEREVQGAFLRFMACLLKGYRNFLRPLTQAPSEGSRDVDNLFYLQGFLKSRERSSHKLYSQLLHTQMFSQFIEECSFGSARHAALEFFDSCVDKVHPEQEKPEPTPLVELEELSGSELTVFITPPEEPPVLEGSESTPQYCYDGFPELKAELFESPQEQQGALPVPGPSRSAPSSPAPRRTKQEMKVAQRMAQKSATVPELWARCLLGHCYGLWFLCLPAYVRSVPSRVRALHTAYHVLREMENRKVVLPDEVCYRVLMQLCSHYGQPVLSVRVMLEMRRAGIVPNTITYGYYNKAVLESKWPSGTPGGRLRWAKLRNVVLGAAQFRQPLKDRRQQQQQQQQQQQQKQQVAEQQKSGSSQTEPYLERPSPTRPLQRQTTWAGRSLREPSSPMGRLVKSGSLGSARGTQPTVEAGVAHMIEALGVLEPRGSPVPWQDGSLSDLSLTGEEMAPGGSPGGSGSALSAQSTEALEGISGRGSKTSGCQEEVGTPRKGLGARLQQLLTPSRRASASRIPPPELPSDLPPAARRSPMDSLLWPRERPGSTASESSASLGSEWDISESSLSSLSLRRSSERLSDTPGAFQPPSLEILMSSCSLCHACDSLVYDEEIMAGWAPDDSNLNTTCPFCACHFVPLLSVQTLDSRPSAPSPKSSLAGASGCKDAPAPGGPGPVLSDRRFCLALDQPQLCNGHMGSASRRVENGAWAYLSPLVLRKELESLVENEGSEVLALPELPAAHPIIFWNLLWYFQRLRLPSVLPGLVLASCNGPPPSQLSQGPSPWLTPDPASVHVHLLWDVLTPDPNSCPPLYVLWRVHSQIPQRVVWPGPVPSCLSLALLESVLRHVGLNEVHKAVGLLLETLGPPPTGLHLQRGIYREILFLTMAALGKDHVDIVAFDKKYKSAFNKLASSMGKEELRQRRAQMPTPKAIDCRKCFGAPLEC
UniProt Q3TWI9: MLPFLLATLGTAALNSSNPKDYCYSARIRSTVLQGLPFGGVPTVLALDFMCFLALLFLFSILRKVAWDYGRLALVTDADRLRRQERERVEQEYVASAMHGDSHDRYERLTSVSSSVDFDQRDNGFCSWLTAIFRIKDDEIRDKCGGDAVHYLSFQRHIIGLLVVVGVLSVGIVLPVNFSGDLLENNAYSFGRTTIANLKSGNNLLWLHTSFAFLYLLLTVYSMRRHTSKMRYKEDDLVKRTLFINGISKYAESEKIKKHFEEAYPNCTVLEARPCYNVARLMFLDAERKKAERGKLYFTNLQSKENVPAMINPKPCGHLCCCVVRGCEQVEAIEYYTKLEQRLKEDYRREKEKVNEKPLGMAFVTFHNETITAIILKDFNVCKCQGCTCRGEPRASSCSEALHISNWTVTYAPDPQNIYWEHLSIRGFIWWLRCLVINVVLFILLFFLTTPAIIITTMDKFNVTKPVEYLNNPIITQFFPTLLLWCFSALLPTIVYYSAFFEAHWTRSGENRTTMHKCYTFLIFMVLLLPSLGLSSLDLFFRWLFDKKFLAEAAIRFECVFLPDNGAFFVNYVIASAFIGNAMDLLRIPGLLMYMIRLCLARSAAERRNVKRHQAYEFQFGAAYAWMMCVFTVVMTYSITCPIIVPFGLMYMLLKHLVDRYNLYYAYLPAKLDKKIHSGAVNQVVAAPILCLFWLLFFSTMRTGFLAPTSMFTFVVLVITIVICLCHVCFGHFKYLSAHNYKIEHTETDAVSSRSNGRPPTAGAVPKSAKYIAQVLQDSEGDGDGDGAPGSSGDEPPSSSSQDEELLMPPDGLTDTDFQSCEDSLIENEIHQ
UniProt Q3TWF6: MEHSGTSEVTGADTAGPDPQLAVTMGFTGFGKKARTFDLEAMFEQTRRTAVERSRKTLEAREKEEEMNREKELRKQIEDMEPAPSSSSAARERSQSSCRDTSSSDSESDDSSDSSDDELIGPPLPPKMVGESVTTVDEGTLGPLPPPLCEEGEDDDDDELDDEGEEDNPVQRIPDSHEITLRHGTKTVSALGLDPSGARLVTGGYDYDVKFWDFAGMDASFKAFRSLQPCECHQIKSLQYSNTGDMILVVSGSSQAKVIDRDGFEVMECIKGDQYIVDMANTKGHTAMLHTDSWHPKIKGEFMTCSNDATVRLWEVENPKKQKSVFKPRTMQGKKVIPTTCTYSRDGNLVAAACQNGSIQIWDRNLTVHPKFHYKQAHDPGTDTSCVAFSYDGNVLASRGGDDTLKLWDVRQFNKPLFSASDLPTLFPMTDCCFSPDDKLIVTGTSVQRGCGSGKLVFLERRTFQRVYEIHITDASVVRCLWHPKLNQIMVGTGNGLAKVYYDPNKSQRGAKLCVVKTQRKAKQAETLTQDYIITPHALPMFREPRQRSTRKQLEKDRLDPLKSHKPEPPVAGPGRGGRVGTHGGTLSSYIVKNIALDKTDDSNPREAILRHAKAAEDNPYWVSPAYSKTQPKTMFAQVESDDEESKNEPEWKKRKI
UniProt Q3U2E2: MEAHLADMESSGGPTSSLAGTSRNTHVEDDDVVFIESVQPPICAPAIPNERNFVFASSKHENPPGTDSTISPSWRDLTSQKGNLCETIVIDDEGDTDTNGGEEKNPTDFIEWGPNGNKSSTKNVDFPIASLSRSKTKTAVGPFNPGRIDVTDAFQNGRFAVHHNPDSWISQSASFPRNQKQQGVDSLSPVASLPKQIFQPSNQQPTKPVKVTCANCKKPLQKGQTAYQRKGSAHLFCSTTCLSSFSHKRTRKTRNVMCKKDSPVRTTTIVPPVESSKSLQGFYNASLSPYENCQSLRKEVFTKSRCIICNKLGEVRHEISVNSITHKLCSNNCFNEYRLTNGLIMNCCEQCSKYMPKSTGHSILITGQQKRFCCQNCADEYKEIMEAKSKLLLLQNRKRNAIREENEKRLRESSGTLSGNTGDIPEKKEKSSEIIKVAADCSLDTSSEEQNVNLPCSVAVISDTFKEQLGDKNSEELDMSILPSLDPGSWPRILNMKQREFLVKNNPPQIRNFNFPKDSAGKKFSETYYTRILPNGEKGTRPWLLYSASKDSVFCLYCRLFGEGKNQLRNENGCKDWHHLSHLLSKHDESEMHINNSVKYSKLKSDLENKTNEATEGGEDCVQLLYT
UniProt Q18PI6: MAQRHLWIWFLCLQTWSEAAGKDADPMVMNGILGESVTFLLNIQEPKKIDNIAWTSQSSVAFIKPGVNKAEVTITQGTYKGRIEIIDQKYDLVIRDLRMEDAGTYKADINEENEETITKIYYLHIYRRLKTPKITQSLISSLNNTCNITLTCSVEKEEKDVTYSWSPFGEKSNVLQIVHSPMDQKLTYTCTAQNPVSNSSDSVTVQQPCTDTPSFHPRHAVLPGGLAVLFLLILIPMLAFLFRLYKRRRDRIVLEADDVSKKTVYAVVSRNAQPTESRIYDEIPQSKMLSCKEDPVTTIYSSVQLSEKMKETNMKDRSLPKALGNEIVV
UniProt Q07832, whole entry: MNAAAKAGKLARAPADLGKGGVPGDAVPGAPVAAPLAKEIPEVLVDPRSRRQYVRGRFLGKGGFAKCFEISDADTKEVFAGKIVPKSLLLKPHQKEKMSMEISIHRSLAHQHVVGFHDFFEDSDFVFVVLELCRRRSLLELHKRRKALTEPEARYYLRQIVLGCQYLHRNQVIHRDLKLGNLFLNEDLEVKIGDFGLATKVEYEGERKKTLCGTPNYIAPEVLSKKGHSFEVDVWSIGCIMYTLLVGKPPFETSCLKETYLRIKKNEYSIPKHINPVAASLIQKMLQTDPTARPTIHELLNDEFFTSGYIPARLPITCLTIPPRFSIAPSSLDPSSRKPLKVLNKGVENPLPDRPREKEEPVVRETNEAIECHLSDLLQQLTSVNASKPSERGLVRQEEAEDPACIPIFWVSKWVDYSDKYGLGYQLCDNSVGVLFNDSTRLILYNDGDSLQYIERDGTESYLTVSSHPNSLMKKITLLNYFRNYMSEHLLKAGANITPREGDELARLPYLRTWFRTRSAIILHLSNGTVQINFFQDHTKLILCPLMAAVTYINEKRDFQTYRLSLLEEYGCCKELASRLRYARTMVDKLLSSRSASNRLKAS
UniProt Q11136: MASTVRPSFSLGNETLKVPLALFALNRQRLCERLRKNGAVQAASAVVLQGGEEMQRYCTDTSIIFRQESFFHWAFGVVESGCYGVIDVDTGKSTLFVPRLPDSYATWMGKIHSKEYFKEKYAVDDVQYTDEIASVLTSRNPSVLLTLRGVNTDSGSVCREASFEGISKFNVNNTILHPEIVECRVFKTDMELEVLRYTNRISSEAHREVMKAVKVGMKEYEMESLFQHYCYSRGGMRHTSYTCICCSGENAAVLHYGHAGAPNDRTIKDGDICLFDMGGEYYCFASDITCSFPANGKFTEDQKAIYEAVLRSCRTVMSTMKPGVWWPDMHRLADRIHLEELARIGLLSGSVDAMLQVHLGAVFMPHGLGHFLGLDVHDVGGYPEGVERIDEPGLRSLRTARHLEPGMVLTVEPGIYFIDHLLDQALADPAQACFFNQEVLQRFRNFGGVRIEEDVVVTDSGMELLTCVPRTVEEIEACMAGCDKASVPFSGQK

Some of the results follow. Most values lie at the level of the controls, where differences are scatter.

Compound in this test: CN[C@@H]1C[C@H]2O[C@@](C)([C@@H]1OC)n1c3ccccc3c3c4c(c5c6ccccc6n2c5c31)C(=O)NC4 [staurosporine]
Put plainly: log2 fold change of tryptic peptide abundance, ligand vs vehicle (limited proteolysis) (log2 ratio); higher = more trypsin-susceptible (destabilized). To be noted: ligand concentration: 20 uM; sample: mouse liver crude lysate; replicate design: treated separately.

Take “UniProt Q03160 (peptide sequence: HVCEMLVQR, peptide start residue: 125)”: the log2 fold change was found to be 0.206.

“UniProt Q0VEJ0 (peptide sequence: QLIHQQLSK, peptide start residue: 13)”: the log2 fold change worked out at 0.745.

With “UniProt Q04742 (peptide sequence: NHYVVGAERK, peptide start residue: 181)”, the log2 fold change was 0.0164.

For the target “UniProt Q3U1Y4 (peptide sequence: TSGCQEEVGTPR, peptide start residue: 1041)”, the log2 fold change was found to be 0.0711.

Take “UniProt Q3TWI9 (peptide sequence: KFLAEAAIR, peptide start residue: 548)”: the log2 fold change was found to be 0.373.

As to “UniProt Q03172 (peptide sequence: QLPSFVLPVPQKR, peptide start residue: 1616)”, the log2 fold change is -0.235.

Consider “UniProt Q3THF9 (peptide sequence: ELMLHEIHHT, peptide start residue: 231)”, for which the log2 fold change is -0.297.

In the case of “UniProt Q3TWF6 (peptide sequence: KVIPTTCTYSR, peptide start residue: 335)”, the log2 fold change was -0.899.

Take “UniProt Q3U2E2 (peptide sequence: NVDFPIASLSR, peptide start residue: 123)”: the log2 fold change stood at 0.132.

For the target “UniProt Q18PI6 (peptide sequence: IYDEIPQSK, peptide start residue: 279)”, the log2 fold change is -0.138.

With “UniProt Q07832 (peptide sequence: SASNRLKAS, peptide start residue: 595)”, the log2 fold change was determined as 0.131.

Take “UniProt Q11136 (peptide sequence: ASVPFSGQK, peptide start residue: 485)”: the log2 fold change was found to be 0.0369.
